These are yes or no findings as the source states them, for the method shown. Some entries that bind do so weakly or less than the wild type.
Tests used:
[1] = biological target: human M1 muscarinic receptor with C-terminally fused mEGFP (human) (UniProt P11229); test: spatial intensity distribution analysis (SpIDA); as a1, cells (100 ng/ml doxycycline) treated with atropine 100 nM for 16 h
[2] = biological target: human M1 muscarinic receptor with C-terminally fused mEGFP (human) (UniProt P11229); test: spatial intensity distribution analysis (SpIDA); as a1, cells (100 ng/ml doxycycline) treated with cytochalasin D 2.5 μg/ml for 3 h
[3] = biological target: human M1 muscarinic receptor with C-terminally fused mEGFP (human) (UniProt P11229); test: spatial intensity distribution analysis (SpIDA); as a1, cells (100 ng/ml doxycycline) treated with N-methylscopolamine 50 nM for 16 h

By UniProt entry, the sequences of proteins in these tests, tags left out.
UniProt P11229: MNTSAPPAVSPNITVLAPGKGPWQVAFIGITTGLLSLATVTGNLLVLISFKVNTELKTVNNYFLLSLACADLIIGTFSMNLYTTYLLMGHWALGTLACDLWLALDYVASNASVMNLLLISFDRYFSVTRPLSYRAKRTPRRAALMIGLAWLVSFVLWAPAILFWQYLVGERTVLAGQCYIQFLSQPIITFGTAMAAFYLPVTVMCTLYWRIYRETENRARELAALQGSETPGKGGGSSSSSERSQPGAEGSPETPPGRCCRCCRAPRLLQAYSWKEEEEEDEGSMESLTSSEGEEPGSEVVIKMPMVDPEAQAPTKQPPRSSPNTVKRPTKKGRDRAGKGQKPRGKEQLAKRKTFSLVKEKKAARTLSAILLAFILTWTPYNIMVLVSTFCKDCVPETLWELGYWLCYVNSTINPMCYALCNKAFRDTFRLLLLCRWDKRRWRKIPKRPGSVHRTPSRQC

Measured: binding

human M1 muscarinic receptor with C-terminally fused mEGFP (from UniProt P11229 1-460)
binds: [1] | [2] | [3]
